Tested on: SU-DHL-4 and SU-DHL-10 cell lines
Assay: RNA-seq differential gene expression in DLBCL cell lines
Assay type: cell-based, human
Experimental: Evaluation of the pharmacodynamic extent and duration of CDK9 inhibition were performed in vitro using the human DLBCL cell lines SU-DHL-4 and SU-DHL-10, harboring MYC amplification and MYC overexpression with P57T mutation, respectively. Cells were seeded 18 hours prior to treatment for 4 hours with one of three CDK9 inhibitors, enitociclib (0.25 and1 µmol/L), atuveciclib (1 µmol/L) or KB-0742 (1 µmol/L), cells were washed, and incubation continued until 48 hours posttreatment. Samples were collected before treatment (−4), immediately after treatment (0), and at 1, 2, 4, 8, 12, 16, 24, and 48 hours after washout for RNA sequencing (RNA-seq), qPCR, and Western blotting analyses. […] The integrity of purified total RNA was evaluated using an Agilent 2100 Bioanalyzer system and RNA 6000 Nano Kit (Agilent, #5067-1511). […] MYC and MCL1 mRNA levels were measured by qPCR in vitro and in vivo, using a Taqman qPCR system (Thermo Fisher Scientific), TaqMan Fast Universal PCR Master Mix (2X) no AmpErase (#4352042) and TaqMan probes for MYC (Hs00153408_m1) and MCL1 (Hs03043899_m1). RNA-seq data were analyzed using DESeq2 ([35]). RNA-seq data generated from the analysis of two cell lines treated with the three CDK9 inhibitors was analyzed to investigate the differences in gene expression levels between various posttreatment timepoints and the pretreatment samples. […]

Q: What does the source list for `COc1cc(F)ccc1-c1cc(Nc2cc(CS(C)(=N)=O)ccn2)ncc1F` (centres unmarked) [enitociclib]?
A: share of DEGs downregulated (4 hours 250 nmol/L treatment (1,177/1,491)): 78.94%; number of significantly DEGs (4 hours 250 nmol/L treatment, Padj ≤ 0.05, fold change ≥2): 1,491
